Data published in the supplement of paper PMC10060354, “Discovery of a small molecule ligand of FRS2 that inhibits invasion and tumor growth” (Cellular Oncology, 2022).

Chains of the proteins cited; added tags and fusions are not shown. Lines headed by an entry give the natural chain unless they say otherwise; changes in a name come on top.
UniProt Q8TAV4: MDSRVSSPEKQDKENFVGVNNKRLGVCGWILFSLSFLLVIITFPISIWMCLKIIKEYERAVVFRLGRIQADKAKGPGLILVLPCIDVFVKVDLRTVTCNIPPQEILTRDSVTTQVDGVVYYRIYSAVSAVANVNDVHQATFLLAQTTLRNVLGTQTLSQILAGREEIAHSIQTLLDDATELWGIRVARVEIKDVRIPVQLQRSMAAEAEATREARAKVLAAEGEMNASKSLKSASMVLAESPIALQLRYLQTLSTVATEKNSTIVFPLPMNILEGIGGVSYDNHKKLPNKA
UniProt Q9UN37: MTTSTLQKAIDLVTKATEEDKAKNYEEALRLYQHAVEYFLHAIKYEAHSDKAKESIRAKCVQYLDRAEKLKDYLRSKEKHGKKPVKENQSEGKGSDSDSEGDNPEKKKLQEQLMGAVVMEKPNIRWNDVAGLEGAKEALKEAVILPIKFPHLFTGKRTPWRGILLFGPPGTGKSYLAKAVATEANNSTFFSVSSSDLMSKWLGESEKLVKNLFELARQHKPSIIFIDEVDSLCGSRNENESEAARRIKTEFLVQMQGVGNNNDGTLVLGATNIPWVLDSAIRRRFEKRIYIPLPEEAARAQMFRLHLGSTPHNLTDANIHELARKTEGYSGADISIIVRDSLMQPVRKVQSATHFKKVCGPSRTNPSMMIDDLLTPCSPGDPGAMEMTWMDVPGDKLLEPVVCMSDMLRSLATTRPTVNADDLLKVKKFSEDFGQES
UniProt Q8TC12: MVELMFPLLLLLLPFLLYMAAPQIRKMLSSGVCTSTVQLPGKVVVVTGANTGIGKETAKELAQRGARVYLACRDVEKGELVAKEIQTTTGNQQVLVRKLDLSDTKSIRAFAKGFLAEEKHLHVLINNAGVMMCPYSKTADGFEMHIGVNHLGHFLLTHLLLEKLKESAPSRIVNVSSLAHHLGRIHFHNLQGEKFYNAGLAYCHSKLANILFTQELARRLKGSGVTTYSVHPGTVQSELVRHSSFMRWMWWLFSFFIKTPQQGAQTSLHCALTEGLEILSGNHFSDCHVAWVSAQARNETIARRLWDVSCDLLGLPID
UniProt P37802: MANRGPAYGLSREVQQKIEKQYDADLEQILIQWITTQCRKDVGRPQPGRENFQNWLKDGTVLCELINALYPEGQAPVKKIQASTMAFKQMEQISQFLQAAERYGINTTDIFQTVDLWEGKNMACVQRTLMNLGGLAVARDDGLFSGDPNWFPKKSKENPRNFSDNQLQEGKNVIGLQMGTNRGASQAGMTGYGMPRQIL
UniProt Q9BXT2: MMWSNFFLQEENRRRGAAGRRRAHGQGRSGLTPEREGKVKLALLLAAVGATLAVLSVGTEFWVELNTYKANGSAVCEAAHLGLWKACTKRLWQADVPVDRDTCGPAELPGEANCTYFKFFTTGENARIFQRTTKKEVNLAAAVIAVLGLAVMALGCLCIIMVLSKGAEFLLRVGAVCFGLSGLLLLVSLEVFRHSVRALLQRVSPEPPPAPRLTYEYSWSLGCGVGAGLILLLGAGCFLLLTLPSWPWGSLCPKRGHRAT
UniProt Q16822, whole entry: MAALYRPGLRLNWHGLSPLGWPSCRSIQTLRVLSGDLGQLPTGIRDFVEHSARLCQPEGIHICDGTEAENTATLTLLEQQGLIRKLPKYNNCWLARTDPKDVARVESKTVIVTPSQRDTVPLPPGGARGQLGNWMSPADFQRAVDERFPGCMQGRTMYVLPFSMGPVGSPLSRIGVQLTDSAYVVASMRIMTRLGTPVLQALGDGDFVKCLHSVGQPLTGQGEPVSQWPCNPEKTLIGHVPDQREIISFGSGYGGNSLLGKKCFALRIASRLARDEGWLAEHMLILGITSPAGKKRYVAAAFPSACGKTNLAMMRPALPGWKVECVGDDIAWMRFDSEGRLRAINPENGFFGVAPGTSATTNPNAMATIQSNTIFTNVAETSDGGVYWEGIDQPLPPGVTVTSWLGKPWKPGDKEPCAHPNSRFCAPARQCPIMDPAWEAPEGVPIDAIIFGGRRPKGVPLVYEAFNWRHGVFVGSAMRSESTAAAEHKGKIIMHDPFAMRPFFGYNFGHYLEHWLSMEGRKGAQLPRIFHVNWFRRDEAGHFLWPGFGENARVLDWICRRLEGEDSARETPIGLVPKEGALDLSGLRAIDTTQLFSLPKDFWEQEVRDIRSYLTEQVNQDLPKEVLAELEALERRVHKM
UniProt Q9P1Y5: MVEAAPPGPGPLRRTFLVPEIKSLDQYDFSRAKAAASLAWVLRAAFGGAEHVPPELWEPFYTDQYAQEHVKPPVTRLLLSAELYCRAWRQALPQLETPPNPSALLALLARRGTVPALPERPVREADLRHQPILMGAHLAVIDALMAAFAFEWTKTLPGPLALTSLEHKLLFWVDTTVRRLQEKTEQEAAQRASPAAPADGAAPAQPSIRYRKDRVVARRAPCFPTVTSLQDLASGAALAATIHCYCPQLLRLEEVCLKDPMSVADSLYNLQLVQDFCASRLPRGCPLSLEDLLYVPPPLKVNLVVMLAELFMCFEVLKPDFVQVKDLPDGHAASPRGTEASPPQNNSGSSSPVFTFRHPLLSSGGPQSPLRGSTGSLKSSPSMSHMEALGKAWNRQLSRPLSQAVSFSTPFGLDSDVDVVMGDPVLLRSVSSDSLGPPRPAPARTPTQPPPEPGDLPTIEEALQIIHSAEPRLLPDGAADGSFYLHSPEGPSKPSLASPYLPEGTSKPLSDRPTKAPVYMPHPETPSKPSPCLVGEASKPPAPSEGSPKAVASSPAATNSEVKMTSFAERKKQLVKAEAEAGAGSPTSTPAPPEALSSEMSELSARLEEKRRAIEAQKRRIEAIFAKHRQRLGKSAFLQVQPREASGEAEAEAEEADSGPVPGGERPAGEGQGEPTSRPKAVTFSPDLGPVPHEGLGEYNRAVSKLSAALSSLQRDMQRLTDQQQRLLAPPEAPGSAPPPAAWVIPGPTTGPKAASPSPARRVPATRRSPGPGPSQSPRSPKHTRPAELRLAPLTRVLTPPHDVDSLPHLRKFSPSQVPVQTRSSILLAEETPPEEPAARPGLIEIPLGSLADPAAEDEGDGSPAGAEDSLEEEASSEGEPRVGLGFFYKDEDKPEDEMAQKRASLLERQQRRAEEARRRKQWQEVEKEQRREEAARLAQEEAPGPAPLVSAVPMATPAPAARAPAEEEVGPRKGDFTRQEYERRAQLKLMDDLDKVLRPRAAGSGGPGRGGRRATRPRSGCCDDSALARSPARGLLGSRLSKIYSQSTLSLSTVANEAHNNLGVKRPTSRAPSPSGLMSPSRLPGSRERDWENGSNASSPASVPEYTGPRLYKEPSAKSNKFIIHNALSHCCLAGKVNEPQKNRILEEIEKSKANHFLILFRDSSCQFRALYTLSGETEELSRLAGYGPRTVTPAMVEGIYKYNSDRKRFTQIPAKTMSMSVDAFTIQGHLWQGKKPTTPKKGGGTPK
UniProt P13984, whole entry: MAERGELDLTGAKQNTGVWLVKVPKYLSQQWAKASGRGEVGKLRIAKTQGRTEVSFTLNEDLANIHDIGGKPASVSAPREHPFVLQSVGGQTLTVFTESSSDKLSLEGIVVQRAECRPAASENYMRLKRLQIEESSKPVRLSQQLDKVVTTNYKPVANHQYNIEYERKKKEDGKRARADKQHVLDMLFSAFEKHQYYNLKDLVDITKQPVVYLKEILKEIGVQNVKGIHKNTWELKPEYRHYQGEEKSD
UniProt Q96CV9, whole entry: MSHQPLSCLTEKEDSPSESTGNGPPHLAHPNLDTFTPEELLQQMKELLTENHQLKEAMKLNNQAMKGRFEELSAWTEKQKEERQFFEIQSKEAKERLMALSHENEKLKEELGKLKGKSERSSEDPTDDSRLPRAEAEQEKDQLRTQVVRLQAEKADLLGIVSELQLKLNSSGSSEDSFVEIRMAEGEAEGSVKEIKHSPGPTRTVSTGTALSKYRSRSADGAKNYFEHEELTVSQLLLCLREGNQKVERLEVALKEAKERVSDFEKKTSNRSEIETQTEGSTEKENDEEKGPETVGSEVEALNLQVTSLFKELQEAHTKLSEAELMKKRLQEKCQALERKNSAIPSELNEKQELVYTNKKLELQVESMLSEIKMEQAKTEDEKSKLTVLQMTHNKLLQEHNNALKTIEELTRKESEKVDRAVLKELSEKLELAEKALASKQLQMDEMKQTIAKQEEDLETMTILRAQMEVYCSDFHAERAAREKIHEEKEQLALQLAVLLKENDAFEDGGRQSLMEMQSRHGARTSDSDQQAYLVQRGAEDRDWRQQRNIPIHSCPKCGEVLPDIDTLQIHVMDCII
UniProt Q9BRP8: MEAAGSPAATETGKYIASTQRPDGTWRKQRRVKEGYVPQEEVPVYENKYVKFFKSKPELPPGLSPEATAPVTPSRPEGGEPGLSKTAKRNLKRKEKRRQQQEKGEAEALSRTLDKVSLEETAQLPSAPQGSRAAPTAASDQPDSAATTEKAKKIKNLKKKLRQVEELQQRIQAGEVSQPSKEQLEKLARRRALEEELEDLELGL
UniProt Q99805: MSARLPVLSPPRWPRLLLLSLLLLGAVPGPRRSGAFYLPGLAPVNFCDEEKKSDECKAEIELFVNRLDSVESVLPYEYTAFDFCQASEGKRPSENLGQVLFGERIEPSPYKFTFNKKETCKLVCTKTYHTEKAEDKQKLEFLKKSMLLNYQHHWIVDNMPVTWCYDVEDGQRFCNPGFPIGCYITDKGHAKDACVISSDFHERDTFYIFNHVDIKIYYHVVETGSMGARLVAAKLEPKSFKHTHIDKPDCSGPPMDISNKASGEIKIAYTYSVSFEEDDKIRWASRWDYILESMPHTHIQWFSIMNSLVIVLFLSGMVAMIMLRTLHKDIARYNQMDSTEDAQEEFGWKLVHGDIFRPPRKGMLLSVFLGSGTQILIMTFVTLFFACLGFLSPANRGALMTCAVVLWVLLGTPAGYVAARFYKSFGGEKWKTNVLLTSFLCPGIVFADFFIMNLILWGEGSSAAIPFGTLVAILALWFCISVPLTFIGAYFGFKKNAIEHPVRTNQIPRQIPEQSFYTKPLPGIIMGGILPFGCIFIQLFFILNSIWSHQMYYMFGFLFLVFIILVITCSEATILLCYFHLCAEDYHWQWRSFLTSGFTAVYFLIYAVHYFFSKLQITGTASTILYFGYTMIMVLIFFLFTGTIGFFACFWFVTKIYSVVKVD
UniProt Q53FT3: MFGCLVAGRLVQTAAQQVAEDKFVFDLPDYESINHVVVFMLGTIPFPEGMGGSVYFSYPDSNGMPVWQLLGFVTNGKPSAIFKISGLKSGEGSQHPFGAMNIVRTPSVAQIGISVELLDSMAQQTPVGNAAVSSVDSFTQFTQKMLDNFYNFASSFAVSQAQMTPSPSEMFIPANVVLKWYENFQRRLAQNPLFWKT
UniProt O95182, whole entry: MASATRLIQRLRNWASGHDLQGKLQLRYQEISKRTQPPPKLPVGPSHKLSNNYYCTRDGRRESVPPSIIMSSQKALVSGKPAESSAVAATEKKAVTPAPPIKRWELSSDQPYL
UniProt Q9BZM5, whole entry: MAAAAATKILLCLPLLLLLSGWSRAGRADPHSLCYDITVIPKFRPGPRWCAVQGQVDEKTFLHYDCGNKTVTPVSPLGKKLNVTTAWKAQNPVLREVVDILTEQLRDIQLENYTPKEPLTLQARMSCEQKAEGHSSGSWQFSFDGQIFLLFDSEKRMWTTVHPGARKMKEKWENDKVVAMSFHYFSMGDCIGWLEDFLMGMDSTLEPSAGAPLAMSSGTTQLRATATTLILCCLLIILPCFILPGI
UniProt Q8N568: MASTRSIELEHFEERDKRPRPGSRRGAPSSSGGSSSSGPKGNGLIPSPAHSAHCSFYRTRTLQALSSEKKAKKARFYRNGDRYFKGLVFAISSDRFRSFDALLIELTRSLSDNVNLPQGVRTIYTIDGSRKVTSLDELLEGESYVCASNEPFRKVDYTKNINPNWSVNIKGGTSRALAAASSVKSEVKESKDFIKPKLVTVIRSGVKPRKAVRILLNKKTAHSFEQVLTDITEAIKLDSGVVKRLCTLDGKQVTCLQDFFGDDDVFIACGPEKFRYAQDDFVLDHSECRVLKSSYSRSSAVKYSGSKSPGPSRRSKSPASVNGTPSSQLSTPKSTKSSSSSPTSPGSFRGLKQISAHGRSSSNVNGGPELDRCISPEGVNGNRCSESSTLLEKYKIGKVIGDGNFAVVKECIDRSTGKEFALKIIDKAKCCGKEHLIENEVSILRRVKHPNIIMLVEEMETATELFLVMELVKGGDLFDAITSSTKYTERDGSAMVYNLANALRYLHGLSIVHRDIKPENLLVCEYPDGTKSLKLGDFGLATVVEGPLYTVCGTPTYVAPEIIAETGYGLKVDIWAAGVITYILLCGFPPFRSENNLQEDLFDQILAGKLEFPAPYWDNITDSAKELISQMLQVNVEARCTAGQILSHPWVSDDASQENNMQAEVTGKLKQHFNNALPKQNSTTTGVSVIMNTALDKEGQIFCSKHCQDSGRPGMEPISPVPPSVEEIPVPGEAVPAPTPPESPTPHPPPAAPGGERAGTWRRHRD

Compound: [O-][N+](C(C1=C(C(O)=C2)NC(C(C=C3)=CC=C3Cl)C4C1C=CC4)=C2Cl)=O
Test: melting temperature shift (compound 7 minus DMSO); higher = compound stabilises the protein
Settings: 10 µM
Protocol: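 Thermal proteome profiling (TMT mass spectrometry) in intact DAOY medulloblastoma cells or DAOY lysates treated with 10 µM compound 7 or DMSO, heated at 10 temperatures from 40.5 to 73.8 °C for 3 min. Melting curves were fitted with the Bioconductor TPP package, and the melting point difference between compound and vehicle is reported per protein (single curve per condition).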

[1] = system: DAOY cell lysate, treatment time: 20 min, 4 °C
[2] = system: intact DAOY cells, treatment time: 90 min, 37 °C

| Target | melting temperature shift [1] [°C] | melting temperature shift [2] [°C] |
| --- | --- | --- |
| KIF11 (UniProt P52732) | -0.632 | -0.383 |
| VPS33B (UniProt Q9H267) | -0.0106 | -0.138 |
| PHGDH (UniProt O43175) | -1.11 | 0.888 |
| UniProt Q8TAV4 |  | 3.92 |
| VPS4A (UniProt Q9UN37) | -1.41 | -0.223 |
| UniProt Q8WXI2 | -1.07 | 0.486 |
| CTSD (UniProt P07339) | 0.437 | 0.416 |
| SLC12A4 (UniProt Q9UP95) | -0.418 | -0.351 |
| RDH11 (UniProt Q8TC12) | 1.81 | -0.635 |
| TAGLN2 (UniProt P37802) | -1.12 | -0.665 |
| UniProt Q9BXT2 |  | 0.707 |
| UniProt Q7L523 | -0.863 | 1.37 |
| PPP6R1 (UniProt Q9UPN7) | -1.26 | -0.929 |
| PCK2 (UniProt Q16822) | -1.61 | -2.84 |
| UniProt Q9P1Y5 | 2.45 | -2.94 |
| HEATR6 (UniProt Q6AI08) | -1.57 |  |
| GTF2F2 (UniProt P13984) | -0.516 | -0.658 |

| Target | melting temperature shift [1] [°C] | melting temperature shift [2] [°C] |
| --- | --- | --- |
| PDCD10 (UniProt Q9BUL8) | -0.668 | -0.806 |
| OPTN (UniProt Q96CV9) | -0.941 | 1.37 |
| GRPEL1 (UniProt Q9HAV7) | 0.844 | 0.0647 |
| PYM1 (UniProt Q9BRP8) | 1.27 |  |
| DDB2 (UniProt Q92466) |  | -0.111 |
| TM9SF2 (UniProt Q99805) | -0.151 | 0.0375 |
| C11ORF73 (UniProt Q53FT3) | -1.22 | -0.274 |
| UniProt C9JRZ8 |  | -0.829 |
| NDUFA7 (UniProt O95182) | 0.716 | -0.22 |
| UniProt Q9BZM5 | 1.67 |  |
| RPL21 (UniProt P46778) | 0.324 | -0.741 |
| RINT1 (UniProt Q6NUQ1) | -0.195 | -0.955 |
| TTN (UniProt Q8WZ42) | -0.601 |  |
| UniProt Q8N568 |  | -2.29 |
| UniProt Q7L8S5 | -0.361 | -1 |
| UniProt Q96GD4 | -0.618 |  |
| NAV2 (UniProt Q8IVL1) |  | 2.04 |

Two entries picked at random from those above, as already listed:

| Target | melting temperature shift [1] [°C] | melting temperature shift [2] [°C] |
| --- | --- | --- |
| NDUFA7 (UniProt O95182) | 0.716 | -0.22 |
| OPTN (UniProt Q96CV9) | -0.941 | 1.37 |

Many values rest on one well or one pass, so single values are uncertain.
